Results are given in words; binding and its absence hold for the method and conditions named. A result given as binding can be weak or reduced; the word gives no strength.

The target of this experiment is cynomolgus monkey CD5 (cynomolgus monkey). Briefly: flow cytometry, labeled antibody on cynomolgus monkey blood leukocytes/PBMCs. For orientation: Flow cytometry measures light scatter and fluorescence of single cells or particles in a stream.

B1: murine anti-CD5 antibody 5D7 (antibody, V domains shown)
VH: QVTLKESGPGILKPSQTLSLTCSFSGFSLSTSGMGVGWIRQPSGKGLEWLAHIWWDDDVYYNPSLKNQLTISKDASRDQVFLKITNLDTADTATYYCVRRRATGTGFDYWGQGTTLTVSS
VL: NIVMTQSHKFMSTSVGDRVSIACKASQDVGTAVAWYQQKPGQSPKLLIYWTSTRHTGVPDRFTGSGSGTDFTLTITNVQSEDLADYFCHQYNSYNTFGSGTRLELK
In the case of B1, the binding entry was “binds”.

These data come from patent US20080254027A1 (published 2008).
